From patent US20220401448A1, “Pharmaceutical Compositions Comprising an Inhibitor of a Histon-deacetylase (HDACi) and an Agonist of Toll-like-receptor 7 and/or 8 (TLR7 and/or TLR8) and Their Use in the Treatment of Cancer” (priority 2019, published 2022) come the findings set out here.

For assay [1], the system named is SKOV3 ovarian cancer cell line. The experiment in a line: MTT proliferation assay, single drugs, SKOV3. Format: cell-based. The conditions noted are these: Homo sapiens, SK-OV-3; SKOV3, single drug.
In assay [2] the test system is OvCar3 ovarian cancer cell line. Nature of the assay: Individual effects (IC50), OvCar3. The format is cell-based. The conditions noted are these: Homo sapiens, OVCAR-3; OvCar3, single drug. The text has this:
This example compares the individual effects of HDACis and agonsist of TLR7/8 of the initially tested cell line SKOV3 (see Example 3) with an additional cell line (OvCar 3, see FIG. 17) and primary ovarian cancer cell lines from heavily pretreated patients (OvCa2810, see FIG. 19; and OvCa 236, see FIG. 21).

For `O=C(CCCCCCC(=O)Nc1ccccc1)NO` [Vorinostat, vorinostat], the results for the 50% inhibitory concentration (IC50) in assay [1] and in assay [2] were 1.1 µM and 3 µM, respectively.
